These results are taken from PubChem BioAssay AID493014 (National Center for Advancing Translational Sciences (NCATS), 2011).

The test in a line: qHTS Assay to Find Inhibitors of Chronic Active B-Cell Receptor Signaling. The settings on record: ABC-DLBCL IkBa-CBG/CBR reporter, luminescence ratio (green luciferase fused to IkBa over red control in TMD8 lymphoma cells), 4 h. In short, it runs like this:
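TMD8 human ABC-DLBCL cells with doxycycline-inducible IκBα–green luciferase fusion and unfused red luciferase, in 0.5% FBS medium; compounds up to 46 uM, 4 h at 37C. Green/red luminescence ratio, filter-overlap corrected, fitted to concentration-response curves.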
A general note: Quantitative high-throughput screening tests each substance at several concentrations.

Setting [1] is: measured here: CBR red luminescence, cell number.
The mark [2] stands for this setting: measured here: IkBa-CBG green luminescence.

The AC50 is the midpoint of the concentration-response curve, whichever way the signal moves.

Each structure is given as a SMILES string. This is one part of the list. Shown are side measurements of this screen, not its main read-out; they come without a call. The list favours compounds with an active or inconclusive main result. Words in brackets tell the shape of the fitted curve; partial curves, single points and poor fits give uncertain potencies.

Regarding `CCCCCC(=O)c1ccc(O)cc1O`, the AC50 under setting [1] is 11.2 µM [rising, partial curve]. With `COc1ccccc1NC(=O)C(C)Nc1ccc(C)c(Cl)c1` (stereo not drawn), the AC50 under setting [1] is 25.1 µM [falling, single point]. On to `COc1ccc(-c2nc(C(N)=O)c3[nH]c(=O)n(-c4ccccc4OC)c3n2)c(OC)c1`, for which the AC50 by setting is: under setting [1], 0.731 µM [rising, full curve]; under setting [2], 1.64 µM [falling, partial curve, poor fit]. Take `CC(=O)NCCc1nc2cc(NC(=O)c3cccs3)ccc2n1C`: under setting [1], the AC50 is 3.16 µM [falling, single point]. For the molecule `COc1ccc(C[C@](C)(N)C(=O)O)cc1OC`, the AC50 under setting [2] is 18.4 µM [falling, partial curve, poor fit]. In the case of `COc1ccc(OC)c(N=Cc2c(O)[nH]c3ccccc23)c1`, the half-maximal activity concentration (AC50) under setting [1] was 0.251 µM [falling, full curve, poor fit]. The same measure, in the same setting: the value for `COc1ccccc1C(=O)NCCC(=O)Nc1nc2ccccc2[nH]1` was 10.3 µM [falling, partial curve]; that for `CCN(CC)c1ccc(CNc2nc3ccccc3n2CCN2CCCCC2)cc1` was 15.8 µM [falling, single point]; that for `O=c1oc2ccccc2cc1-c1cn2ccccc2n1` was 3.16 µM [falling, full curve]. Consider `Brc1ccc(-c2nnc(Cc3ccccc3)o2)cc1`, for which the AC50 under setting [1] is 11.2 µM [falling, single point]. Turning to `CCOc1ccc(Oc2cc(N)cc([N+](=O)[O-])c2)cc1`, the AC50 under setting [1] was 35.5 µM [rising, partial curve, poor fit]. Regarding `CCN(c1ccccc1)S(=O)(=O)c1ccc(NC(=O)c2ccco2)cc1`, under setting [1], the AC50 is 35.5 µM [falling, single point]. In the case of `CCOC(=O)c1ccc(NC(=O)c2cccc(C)c2[N+](=O)[O-])cc1`, under setting [1], the AC50 was 11.2 µM [falling, partial curve, poor fit]. On to `CC(Sc1ccccn1)C(=O)Nc1ccc2c(c1)OCO2` (stereo not drawn), for which the AC50 under setting [1] was 29.1 µM [rising, single point].

In the case of `O=C(CN1CCOCC1)Nc1ncc(Br)cc1Br`, under setting [1], the AC50 was 0.517 µM [falling, full curve, poor fit]. Consider `Cn1c(=O)c2ncn(CC(=O)N/N=C/C=C/c3ccccc3)c2n(C)c1=O`, for which the AC50 under setting [1] was 35.5 µM [rising, partial curve, poor fit]. As to `Clc1ccc2c(c1)C1OCCC1C(c1ccco1)N2` (stereo not drawn), the AC50 under setting [1] was 29.1 µM [falling, single point] and the AC50 under setting [2] is 16.4 µM [rising, partial curve, poor fit]. Consider `CCCn1c(SCC(=O)Nc2ccccc2N2CCOCC2)nc2c1c(=O)n(C)c(=O)n2C`, for which, under setting [1], the AC50 is 0.00651 µM [falling, full curve, poor fit]. Still for that read-out and setting: the same measure for `CCOC(=O)C1=C(COC(=O)C2(C)CC2(Cl)Cl)NC(=O)NC1c1ccccc1` (stereo not drawn): 6.31 µM [falling, partial curve, poor fit].

Take `O=C(NNS(=O)(=O)c1ccc(F)cc1)c1ccc([N+](=O)[O-])cc1`: under setting [1], the AC50 is 0.501 µM [rising, partial curve, poor fit]. Still for that read-out and setting: the same measure for `CC(=O)NC1=NC(=O)/C(=C/N2CCOCC2)S1`: 1.3 µM [falling, full curve, poor fit]; for `COCc1ccc(C(=O)Nc2ccc(C(=O)O)cc2)o1`: 22.4 µM [falling, single point]. On the same count and under the same terms, the same measure for `CCCCCCCCn1c2c(c(=N)c3c1CCC3)CCCC2`: 35.5 µM [falling, single point]; for `O=C(NCc1ccco1)c1cc(-c2ccco2)on1`: 11.2 µM [falling, single point]; for `COc1ccc2oc(CS(=O)c3ccccc3)c(C(=O)O)c2c1` (stereo not drawn): 1 µM [falling, full curve].

In the case of `Cc1noc(NS(=O)(=O)c2ccc(N/C=C\C(=O)c3ccncc3)cc2)c1C`, the AC50 runs as follows: under setting [1], 6.51 µM [falling, single point]; under setting [2], 6.51 µM [rising, partial curve, poor fit]. As to `O=C1NC(c2cccs2)C(C(=O)c2ccccc2)C(O)(C(F)(F)F)N1` (stereo not drawn), the AC50 under setting [1] is 35.5 µM [rising, partial curve, poor fit]. Turning to `COc1cc2cc(C(=O)N3CCOCC3)cc(-c3ccc(C)cc3)c2cc1OC`, the AC50 under setting [2] is 20 µM [falling, single point]. With `COc1ccc(NC(=O)c2ccco2)cc1N`, under setting [1], the AC50 is 8.91 µM [falling, partial curve, poor fit].

Take `O=C(Nc1ccc(Cl)c(Cl)c1)N1N=CCC1c1ccccc1` (stereo not drawn): under setting [1], the AC50 is 7.08 µM [rising, partial curve, poor fit].

As for `CC12CCC(C(=O)N(NC(=O)c3cc(Cl)ccc3O)C1=O)C2(C)C` (stereo not drawn), under setting [1], the AC50 is 3.55 µM [falling, partial curve, poor fit]. Turning to `CC(NC(=O)c1ccc(OC2CCN(C(=O)c3cccnc3)CC2)cc1)C1CC1` (stereo not drawn), the AC50 under setting [1] is 0.1 µM [rising, full curve, poor fit].

Regarding `COc1ccc(CCNC(=O)c2ccccc2OCc2ccccc2)cc1`, the AC50 under setting [1] was 10 µM [falling, partial curve]. As to `CCOC(=O)c1ccc(OCC2c3cc(OC)c(OC)cc3CCN2C(=O)Cc2ccc(F)cc2)cc1` (stereo not drawn), the AC50 under setting [1] was 7.08 µM [falling, partial curve]. Take `CC1CN=C(N(C(=O)Nc2ccccc2)c2ccc(F)cc2)S1` (stereo not drawn): the AC50 under setting [1] was 29.1 µM [falling, single point]. Turning to `Nc1cc(OC(=O)c2ccccc2Br)nn1S(=O)(=O)c1ccccc1`, the AC50 under setting [1] was 17.8 µM [falling, partial curve]. On to `CCCCOC(=O)NS(=O)(=O)c1sc(CC(C)C)cc1-c1ccc(Cn2c(CC)nc3c(C)cc(C)nc32)cc1`, for which the AC50 under setting [1] was 29.1 µM [falling, single point]. For `COc1ccc(O)c(C(=O)c2cnn(-c3ccc(Cl)cc3)c2)c1`, under setting [1], the AC50 is 35.5 µM [falling, partial curve, poor fit]. In the case of `Fc1ccc(-c2cc3nc(-c4ccccc4)cc(N4CCOCC4)n3n2)cc1`, under setting [1], the AC50 is 0.164 µM [falling, full curve, poor fit]. Turning to `COc1ccccc1NC(=O)CSc1nnc(-c2ccccc2)o1`, the AC50 under setting [1] was 2.06 µM [rising, partial curve, poor fit].
